This is one part of the list. Potency and affinity values are given separately.
Tested on: Pseudomonas aeruginosa
Settings: Concentration 20 uM; ASSAY_TEST Inhibition of Bacterial Growth; detection method Absorption (OD600); MEDIA CAMHB; plate type 384well; NBS; CORNING #3640; time 18 hr

SMILES	Inhibition
CN(C)CCOC(c1ccc(Cl)cc1)c1ccccn1.O=C(O)/C=C\C(=O)O (centres undefined) [CARBINOXAMINE MALEATE]	8.84%
CC(=O)[C@H]1CC[C@H]2[C@@H]3C[C@H](C)C4=CC(=O)CC[C@]4(C)[C@H]3[C@@H](O)C[C@]12C [MEDRYSONE]	10.79%
Cl.c1ccc2c(c1)CCCC2C1=NCCN1 (centres undefined) [TETRAHYDROZOLINE HYDROCHLORIDE]	22.85%
CCCC(=O)Nc1ccc(OCC(O)CNC(C)C)c(C(C)=O)c1.Cl (centres undefined) [ACEBUTOLOL HYDROCHLORIDE]	12.62%
CN1CCN(c2nc3cc(C(F)(F)F)ccc3n3cccc23)CC1.O=C(O)/C=C\C(=O)O.O=C(O)/C=C\C(=O)O	7.34%
C#C[C@]1(O)CC[C@H]2[C@@H]3CCc4cc(O)ccc4[C@H]3CC[C@@]21C [ETHINYL ESTRADIOL]	11.31%
CN1CCCCC1CCN1c2ccccc2Sc2ccc([S+](C)[O-])cc21.O=S(=O)(O)c1ccccc1 (centres undefined) [MESORIDAZINE BESYLATE]	5.37%
Cc1ncc([N+](=O)[O-])n1CCO [METRONIDAZOLE]	12.01%
CCN(Cc1ccncc1)C(=O)C(CO)c1ccccc1 (centres undefined) [TROPICAMIDE]	18.41%
O=C(CCCN1CC=C(n2c(=O)[nH]c3ccccc32)CC1)c1ccc(F)cc1 [DROPERIDOL]	9.76%
CC(=O)S[C@@H]1CC2=CC(=O)CC[C@]2(C)[C@H]2CC[C@@]3(C)[C@@H](CC[C@@]34CCC(=O)O4)[C@H]12 [SPIRONOLACTONE]	8.19%
COc1ccc(-c2oc3c(CC=C(C)C)c(O[C@@H]4O[C@H](CO)[C@@H](O)[C@H](O)[C@H]4O)cc(O)c3c(=O)c2O[C@@H]2O[C@@H](C)[C@H](O)[C@@H](O)[C@H]2O)cc1 [ICARIIN]	18.03%
COc1ccc2cc(CCC(C)=O)ccc2c1 [NABUMETONE]	12.84%
CNC(=C[N+](=O)[O-])NCCSCc1csc(CN(C)C)n1 [NIZATIDINE]	8.31%
COc1cc(C)nc(-n2nc(C)cc2OC)n1 [EPIRIZOLE]	12.79%
Cl.O=C1c2c(O)ccc(O)c2C(=O)c2c(NCCNCCO)ccc(NCCNCCO)c21	1.28%
CNCCC=C1c2ccccc2CCc2ccccc21.Cl [NORTRIPTYLINE HYDROCHLORIDE]	14.17%
CCc1cc(C(N)=S)ccn1 [ETHIONAMIDE]	20.55%
O=C1c2c(O)cc(O)cc2O[C@H](c2ccc(O)c(O)c2)[C@H]1O [(+)-TAXIFOLIN]	12.91%
COC(=O)C1=C(C)NC(C)=C(C(=O)O[C@@H]2CCCN(Cc3ccccc3)C2)[C@@H]1c1cccc([N+](=O)[O-])c1.Cl	29.02%
COc1cc2nc(N3CCN(C(=O)C4CCCO4)CC3)nc(N)c2cc1OC (centres undefined) [TERAZOSIN]	7.31%
CC(C)OC(=O)CCC/C=C\C[C@@H]1[C@@H](CC[C@@H](O)CCc2ccccc2)[C@H](O)C[C@@H]1O [LATANOPROST]	38.15%
COc1cc(C)c(/C=C/C(C)=C/C=C/C(C)=C/C(=O)O)c(C)c1C [ACITRETIN]	5.45%

SMILES	Inhibition
NS(=O)(=O)c1cc2c(cc1Cl)NCNS2(=O)=O [HYDROCHLOROTHIAZIDE]	21.02%
CCCc1nc(C)c2c(O)nc(-c3cc(S(=O)(=O)N4CCN(CC)CC4)ccc3OCC)nn12.O=C(O)CC(O)(CC(=O)O)C(=O)O	9.68%
CC(c1cc2ccccc2s1)N(O)C(N)=O (centres undefined) [ZILEUTON]	6.91%
CN(C)CCC[C@@]1(c2ccc(F)cc2)OCc2cc(C#N)ccc21.O=C(O)C(=O)O [ESCITALOPRAM OXALATE]	7.25%
Nc1ccc(O)c(C(=O)O)c1 [MESALAMINE]	3.43%
O=C([O-])c1cc(=O)c2c(OCC(O)COc3cccc4oc(C(=O)[O-])cc(=O)c34)cccc2o1.[Na+].[Na+] [CROMOLYN SODIUM]	6.23%
CN1CCN(CCCN2c3ccccc3Sc3ccc(C(F)(F)F)cc32)CC1.Cl.Cl [TRIFLUOPERAZINE HYDROCHLORIDE]	18.35%
CS(=O)(=O)O.Oc1ccc(C2CNCCc3c2cc(O)c(O)c3Cl)cc1 (centres undefined) [FENOLDOPAM MESYLATE]	12.84%
CCC(C)(C)C(=O)O[C@H]1C[C@@H](C)C=C2C=C[C@H](C)[C@H](CC[C@@H]3C[C@@H](O)CC(=O)O3)[C@H]21 [SIMVASTATIN]	2.51%
O=C(O[C@H]1[C@H](Oc2ccccc2COC(=O)C2(O)C=CCCC2=O)O[C@H](CO)[C@@H](O)[C@@H]1O)c1ccccc1 (some centres undefined) [TREMULACIN]	30.98%
O=C1C(CC[S+]([O-])c2ccccc2)C(=O)N(c2ccccc2)N1c1ccccc1 (centres undefined) [SULFINPYRAZONE]	20.19%
CC(C)C[C@H](NC(=O)[C@@H](O)[C@H](N)Cc1ccccc1)C(=O)O [UBENIMEX]	8.82%
C=CCc1ccc(O)c(-c2ccc(O)c(CC=C)c2)c1 [HONOKIOL]	34.04%
Nc1c2c(nc3c1CCC3)CCCC2 [IPIDACRINE]	19.41%
CC1(C)O[C@@H]2C[C@H]3[C@@H]4C[C@H](F)C5=CC(=O)C=C[C@]5(C)[C@@]4(F)[C@@H](O)C[C@]3(C)[C@]2(C(=O)CO)O1 [FLUOCINOLONE ACETONIDE]	11.45%
CN(CCOc1ccc(NS(C)(=O)=O)cc1)CCc1ccc(NS(C)(=O)=O)cc1 [DOFETILIDE]	16.72%
CCN(CC)CCOC(=O)C1(C2CCCCC2)CCCCC1.Cl [DICYCLOMINE HYDROCHLORIDE]	3.37%
COc1ccnc(C[S+]([O-])c2nc3cc(OC(F)F)ccc3[n-]2)c1OC.O.[Na+] (centres undefined) [PANTOPRAZOLE SODIUM]	43.3%
CCC(C)(C)/N=C(\NC#N)Nc1cccnc1	33.28%
C[C@]12C[C@H](O)[C@H]3[C@@H](CCC4=CC(=O)CC[C@@]43C)[C@@H]1CC[C@@H]2C(=O)CO [CORTICOSTERONE]	17.17%
CC(CCCCC(=O)Nc1ccc(C(F)(F)F)cc1)NCCc1c[nH]cn1.O=C(O)/C=C\C(=O)O.O=C(O)/C=C\C(=O)O (centres undefined)	23.47%
C=C(CC)C(=O)c1ccc(OCC(=O)O)c(Cl)c1Cl [ETHACRYNIC ACID]	11.3%
CN(C)CC/C=C1/c2ccccc2COc2ccc(CC(=O)O)cc21.Cl [OLOPATADINE HYDROCHLORIDE]	-7.29%

SMILES	Inhibition
CC1=C(C(=O)O)N2C(=O)[C@@H](NC(=O)[C@H](N)c3ccccc3)[C@H]2SC1.O [CEPHALEXIN]	-10.13%
CCOC(=O)N1CCC(=C2c3ccc(Cl)cc3CCc3cccnc32)CC1 [LORATADINE]	15.05%
Sc1ncnc2nc[nH]c12 [MERCAPTOPURINE ANHYDROUS]	11.75%
O=C1C(c2c(O)[nH]c3ccccc23)=Nc2ccccc21	5.7%
O=C1N[C@H](C(=O)O)CS1 [PROCYSTEINE]	15.77%
C[C@H](N[C@@H](CCc1ccccc1)C(=O)O)C(=O)N1CCC[C@H]1C(=O)O [ENALAPRILAT ANHYDROUS]	3.43%
COC(=O)[C@H](c1ccccc1Cl)N1CCc2sccc2C1 [CLOPIDOGREL]	15.58%
CCCSc1ccc2[nH]c(NC(=O)OC)nc2c1 [ALBENDAZOLE]	1.7%
Cc1ccc(N(CC2=NCCN2)c2cccc(O)c2)cc1 [PHENTOLAMINE]	4.16%
O=C(O)CCc1nc(-c2ccccc2)c(-c2ccccc2)o1 [OXAPROZIN]	23.23%
Clc1ccc2c(c1)C(N1CCNCC1)=Nc1ccccc1O2 [AMOXAPINE]	14.02%
CCN(CC)CCNC(=O)c1cc(Cl)c(N)cc1OC.Cl	3.44%
COC(=O)C1=C(C)NC(C)=C(C(=O)OCCN(C)Cc2ccccc2)C1c1cccc([N+](=O)[O-])c1.Cl (centres undefined) [NICARDIPINE HYDROCHLORIDE]	3.41%
Oc1ncc(F)cn1	19.68%
CCC[C@@H]1C[C@@H](C(=O)N[C@@H]([C@H]2O[C@H](SC)[C@H](O)[C@@H](O)[C@H]2O)[C@@H](C)O)N(C)C1.Cl.O [LINCOMYCIN HYDROCHLORIDE]	18.45%
COc1c2occc2cc2ccc(=O)oc12 [METHOXSALEN]	9.57%
N#Cc1ccc(C(c2ccc(C#N)cc2)n2cncn2)cc1 [LETROZOLE]	8.9%
CC(=O)OCC(=O)[C@@]1(O)CC[C@H]2[C@@H]3CCC4=CC(=O)C=C[C@]4(C)[C@H]3[C@@H](O)C[C@@]21C [PREDNISOLONE ACETATE]	16.93%
CN1CCN(CC/C=C2/c3ccccc3Sc3ccc(S(=O)(=O)N(C)C)cc32)CC1 [THIOTHIXENE]	4.76%
CC(C)(C(=O)O)c1ccc(C(O)CCCN2CCC(C(O)(c3ccccc3)c3ccccc3)CC2)cc1.Cl (centres undefined) [FEXOFENADINE HYDROCHLORIDE]	17.28%
CCC(=O)[N-]S(=O)(=O)c1ccc(-c2c(-c3ccccc3)noc2C)cc1.[Na+] [PARECOXIB SODIUM]	7.03%
CCN(CC)CC(=O)Nc1c(C)cccc1C [LIDOCAINE]	23.12%
CNCCCC12CCC(c3ccccc31)c1ccccc12.Cl [MAPROTILINE HYDROCHLORIDE]	17%

Reference: ChEMBL document CHEMBL4513141, “CO-ADD screening of NIH (USA) - Clinical Collection” (2021)
